# The other results are listed elsewhere or left out.
# System: T1, CTL2-GFP (C. trachomatis L2/434/Bu, GFP-expressing)
# T1 construct: L2/434/Bu, GFP-expressing
# Design: species or system HeLa; Intracellular C. trachomatis growth in HeLa cells, bulk GFP fluorescence relative to DMSO
# Settings: bulk GFP, single well; 28.5 h, 10 µM; inhibitor
row,SMILES,% of control remaining [%]
1,CCc1cnc(CN(C)C2CCN(Cc3cccc(C(N)=O)c3)C2)o1 (stereo not drawn) [CBK305357],142.988
2,Cc1ccc2nc(NC(=O)COc3ccccc3)sc2c1 [CBK287335],146.507
3,COc1cc([C@@]23CC[C@@H](NC(=O)Nc4cc(F)ccc4F)C[C@@H]2N(C)CC3)ccc1OC(F)F [CBK073834],75.4762
4,Cc1cc2ccccc2n2c(=O)n(CC(=O)N3CCCC3)nc12 [CBK283880],114.272
5,CCOc1ccc(N(Cc2cc3cc(C)ccc3nc2O)C(=O)c2ccccc2OC)cc1 [CBK265427],100
6,COc1cc(-c2nnc(NC(C)=O)o2)cc(OC)c1OC [CBK287698],97.3232
7,CC(=O)Nc1ccc(Oc2c(F)c(F)c(/C=C/CN3CCOCC3)c(F)c2F)cc1 [CBK269302C],136.69
8,Cn1ccnc1C1(O)CC2CCC(C1)N2C(=O)c1ccc(F)cc1 (stereo not drawn) [CBK284086],117.858
9,C(=N\c1ccc(-c2nc3ccc(/N=C/c4ccncc4)cc3[nH]2)cc1)/c1ccncc1 [CBK261681],92.434
10,Cc1ccc(NC(=O)Cn2nc(C)c([N+](=O)[O-])c2C)cc1Cl [CBK268336],154.51
11,O=C(O)c1cc(NC(=O)c2cccc(Oc3ccc([N+](=O)[O-])cc3)c2)cc(C(=O)O)c1 [CBK263528],125.379
12,CN1CCN(c2ccc(NC(=O)c3ccc(OCc4ccccc4)cc3)cc2)CC1 [CBK266124],197.568
13,Cc1ncccc1C(=O)NC(CC(C)C)c1nnc2n1CCNCC2 (stereo not drawn) [CBK307348],194.053
14,O=c1[nH]c2cc3nn[nH]c3cc2[nH]1 [CBK018154],93.6873
15,COc1ccc(C(C)c2cc3c(cc2OCC(=O)O)OCO3)cc1 (stereo not drawn) [CBK200108],104.917
16,C[C@H](c1ccccc1)n1c(=O)[nH]c2ncc(-c3cccc(C(=O)NCCN(C)C)c3)nc21 [CBK064204],144.504
17,O=C1CCC(=O)N1CCOc1nccnc1N1CCN(Cc2ccc(Cl)cc2)CC1 [CBK084290],108.097
18,O=C(C1=C(O)C(=O)N(Cc2cccnc2)C1c1cccc(Oc2ccccc2)c1)c1ccc(Cl)cc1 (stereo not drawn) [CBK264698],100
19,CCOc1ccc(S(=O)(=O)N2CCCCC2)cc1-c1nc(=O)c2c([nH]1)c(C(C)(C)C)nn2C [CBK265119],171.825
20,O=c1[nH]c2ccc(NS(=O)(=O)c3ccc4c(c3)OCCCO4)cc2[nH]1 [CBK295315],142.992
21,CC(C)NC(=O)c1sc2ccccc2c1C1CN(Cc2c[nH]nc2C(C)(C)C)CCO1 (stereo not drawn) [CBK285535],131.126
22,Ic1ccc(NCc2cn3ccccc3n2)cc1 [CBK058563],118.122
23,Cc1onc(-c2ccccc2)c1C(=O)NNC(=S)NC(=O)c1ccc(Cl)cc1 [CBK267493],106.159
24,Fc1ccc(Cn2nnc(-c3ccncc3)n2)c(Cl)c1 [CBK288534],119.566
25,C(=C\c1ccccc1)/CSc1nnc(CSc2nc3ccccc3s2)n1-c1ccccc1 [CBK264467],125.797
26,Cc1cccc(OCc2nnc(SCC(=O)Nc3cccc4ccccc34)o2)c1C [CBK267153],120.311

# Taken from above:
# In % of control remaining [%], Ic1ccc(NCc2cn3ccccc3n2)cc1 [CBK058563] has 118.122
# In % of control remaining [%], Cc1cccc(OCc2nnc(SCC(=O)Nc3cccc4ccccc34)o2)c1C [CBK267153] has 120.311
# In % of control remaining [%], O=C1CCC(=O)N1CCOc1nccnc1N1CCN(Cc2ccc(Cl)cc2)CC1 [CBK084290] has 108.097

# (more compounds)

row,SMILES,% of control remaining [%]
1,CC(=O)c1ccc(-c2ccc3ccc(N)nc3n2)cc1 [CBK061862],122.912
2,COc1cc(F)ccc1-c1cnc(N)c2ncccc12 [CBK067585],104.827
3,CCc1c(C)nc2ccc(NC(C)=O)cc2c1SCCC(=O)O [CBK159465T],106.715
4,COc1ccc(-c2nnc(SC(C)c3nnc(-c4ccccc4)o3)n2CC(C)C)cc1 (stereo not drawn) [CBK297108],94.2012
5,O=C(c1ccco1)N1CCC[C@@H]1Cn1c(=O)oc2ccccc21 [CBK284538],180.048
6,O=C(CN1CCC(c2ccccc2F)CC1)N1CCOCC1 [CBK283548],119.633
7,O=C(c1cccc2ncccc12)N1CCC(c2ccncc2)CC1 [CBK283798],104.844
8,COc1ccc(-c2nnc(N)[nH]2)cc1 [CBK028843],94.7709
9,COc1ccc(OC)c(NC(=O)COc2ccc(C(C)C)cc2)c1 [CBK263498],89.7732
10,COc1ccc(-c2ccc(/C=N/NC(=O)c3ccncc3)o2)c([N+](=O)[O-])c1 [CBK262156],87.972
11,CCN(CC)C(=O)CN1CCC(Oc2cncc(Oc3ccc(OC)c(OC)c3)n2)C1 (stereo not drawn) [CBK084404],97.8092
12,O=C(OCCC1SC(NC2CC3C=CC2C3)=NC1=O)c1cc(C(F)(F)F)ccc1C(F)(F)F (stereo not drawn) [CBK200058T],124.733
13,O=S(=O)(O)CCCSCCCS(=O)(=O)O [CBK278307N],100
14,Cc1ccccc1NC(=O)NCc1ccccc1 [CBK105833],123.415
15,O=C1CCN([C@H]2C[C@@H](O)[C@@H](CO)O2)C(=O)N1 [CBK201288],114.683
16,COc1cc(F)cc(OC2CCNCC2)c1NC(=O)c1cnccn1 [CBK050296T],107.114
17,CCCCOc1nccnc1-c1ccsc1 [CBK106778],100
18,CSc1nsc(SCC(=O)N2CCN(C(c3ccccc3)c3ccccc3)CC2)n1 [CBK268071],118.962
19,O=C(Cc1ccccc1)Nc1nc(OCC(F)(F)F)cnc1-c1ccsc1 [CBK145298],106.691
20,CC(C)CNc1ccc(-c2cccc(N(C)C)c2)cn1 [CBK037603],98.6584
21,Brc1ccc(C2(c3nnc(C4CC4)o3)CCOCC2)cc1 [CBK305498],113.663
22,CCc1nc2c(OCCOc3ccc(F)cc3)cccn2c1N(C)C(=O)c1ccncc1 [CBK147472],147.692
23,CCOCCN1CCC(C(=O)NC(c2ccc(F)cc2)c2nc(OC)cc(OC)n2)CC1 (stereo not drawn) [CBK148087],151.453
24,Cc1ccccc1CSc1cccc(F)c1 [CBK002913],101.176
25,CC(C)C(=O)N1CC2(CCN(CCCCC3NC(=O)NC3=O)CC2)c2ccccc21 (stereo not drawn) [CBK131471],101.915
26,O=C(c1cccc(Cl)c1)N1CCC(O)(c2cccnc2)CC1 [CBK283553],85.9979

row,SMILES,% of control remaining [%]
1,O=c1[nH]c(=O)c2ccn([C@H]3C[C@@H](O)[C@@H](CO)O3)c2[nH]1 [CBK201331],103.501
2,CC1CN(C)C(C)CC1OC(=O)C(c1ccccc1)c1ccccc1 (stereo not drawn) [CBK087393],111.224
3,CCN(CC)C(=O)CN1CCCN(c2nccc(OCCN3CCOCC3)n2)CC1 [CBK084094],122.252
4,COc1ccc(Cn2nc(NC(=O)Nc3ccc(N(C)C)cc3)c3ccccc32)cc1 [CBK048529],120.994
5,Cc1ccccc1C(NC(=O)C1CCN(C(=O)N(C)c2ccccc2)CC1)c1ccccn1 (stereo not drawn) [CBK059721],80.6511
6,O=C(O)c1ccc(OCCNS(=O)(=O)c2ccc3oc4ccccc4c3c2)cc1 [CBK299797],89.204
7,COc1ccc(-c2cncc(C3CN(Cc4ccc(C)cc4OC)CCO3)n2)cc1 (stereo not drawn) [CBK286100],109.766
8,O=C(CCCc1ccccn1)N(Cc1ccccn1)C1CCCC1 [CBK282033],122.594
9,Cc1ccc(C(=O)N2CCN(S(=O)(=O)c3cccc([N+](=O)[O-])c3)CC2)cc1 [CBK266259],118.004
10,O=C(Cc1ccc(F)cc1)NCCn1nc(-c2ccco2)ccc1=O [CBK283706],132.375
11,CCOC(=O)C1=NN(C)c2cnn(Cc3ccc(Cl)cc3)c(=O)c2C1C(=O)CC(C)C (stereo not drawn) [CBK021389],116.913
12,CC(C)(CO)CNc1nc(-c2ccc(F)cc2)cnc1N [CBK063589],170.936
13,CCCCN(C(C)=O)c1c(CC)nc2ccc(C(=O)NCCCn3ccnc3)cn12 [CBK145759],74.9925
14,COc1ccc(OC)c(/N=C2\CC(=O)CC(C)(C)C2)c1 [CBK020541],141.969
15,O=C1CN(C(=O)NCc2cccc(C(F)(F)F)c2)CCN1 [CBK155850],95.1394
16,CC(NCC(=O)NC1(C#N)CCCCC1)C(C)n1cccn1 (stereo not drawn) [CBK305129],129.827
17,Cn1cc(C(=O)O)c(NC(=O)c2ccccc2Cl)n1 [CBK000353],116.614
18,Cc1ccc(F)cc1C(=O)NCC1CCN(c2cnn(C)c(=O)c2)C1 (stereo not drawn) [CBK307235],112.085
19,Cc1cccc(C(=O)NCCCNC(=O)c2ccncc2)c1 [CBK269572],146.372
20,CCN(CC(C)C#N)C(=O)c1nn(-c2ccccc2)c(C)cc1=O (stereo not drawn) [CBK304925],101.023
21,Cc1nc(C)n(CC2CCCN(CC(=O)NCc3ccccn3)C2)n1 (stereo not drawn) [CBK305291],130.326
22,CC(=O)Nc1ccc(-c2cccc(COC3CCN(C(=O)Cc4ccc(C#N)cc4)CC3)c2)cc1 [CBK149495],91.6631
23,COc1ccccc1C(=O)N1CCC(Cc2ccccc2-c2ccccc2)(C(N)=O)CC1 [CBK285739],125.203
24,Cc1cccc(OCc2nnc(SCC(=O)NC3CCCCC3)o2)c1 [CBK264652],100
25,Cc1nc(-c2ccccc2)cc([C@H]2CN3CC[C@H]2C[C@@H]3CNC(=O)NC(C)C)n1 [CBK289126],129.003
26,OC1(c2ccc(F)cc2)CC2CCC(C1)N2 (stereo not drawn) [CBK281947],144.646

# Source: article PMC12040169 (PLOS Biology, 2025)
